EP2703005A1, “Inhibitors of alpha6 Integrin/E-Cadherin Complex” (Università Degli Studi Di Torino, priority 2012, dated 2014)
These are yes or no findings as the source states them, for the method shown. Binding seen in cells or lysates may run through a third protein. Some entries that bind do so weakly or less than the wild type. Sequences can lack the tags named with a protein.

Sequences of proteins named here, by UniProt entry; tags and fusion partners are left off. A change or cut given only in a name is not applied to a line headed by its entry. Residues count along the entry.
UniProt P09874, residues 2-1014: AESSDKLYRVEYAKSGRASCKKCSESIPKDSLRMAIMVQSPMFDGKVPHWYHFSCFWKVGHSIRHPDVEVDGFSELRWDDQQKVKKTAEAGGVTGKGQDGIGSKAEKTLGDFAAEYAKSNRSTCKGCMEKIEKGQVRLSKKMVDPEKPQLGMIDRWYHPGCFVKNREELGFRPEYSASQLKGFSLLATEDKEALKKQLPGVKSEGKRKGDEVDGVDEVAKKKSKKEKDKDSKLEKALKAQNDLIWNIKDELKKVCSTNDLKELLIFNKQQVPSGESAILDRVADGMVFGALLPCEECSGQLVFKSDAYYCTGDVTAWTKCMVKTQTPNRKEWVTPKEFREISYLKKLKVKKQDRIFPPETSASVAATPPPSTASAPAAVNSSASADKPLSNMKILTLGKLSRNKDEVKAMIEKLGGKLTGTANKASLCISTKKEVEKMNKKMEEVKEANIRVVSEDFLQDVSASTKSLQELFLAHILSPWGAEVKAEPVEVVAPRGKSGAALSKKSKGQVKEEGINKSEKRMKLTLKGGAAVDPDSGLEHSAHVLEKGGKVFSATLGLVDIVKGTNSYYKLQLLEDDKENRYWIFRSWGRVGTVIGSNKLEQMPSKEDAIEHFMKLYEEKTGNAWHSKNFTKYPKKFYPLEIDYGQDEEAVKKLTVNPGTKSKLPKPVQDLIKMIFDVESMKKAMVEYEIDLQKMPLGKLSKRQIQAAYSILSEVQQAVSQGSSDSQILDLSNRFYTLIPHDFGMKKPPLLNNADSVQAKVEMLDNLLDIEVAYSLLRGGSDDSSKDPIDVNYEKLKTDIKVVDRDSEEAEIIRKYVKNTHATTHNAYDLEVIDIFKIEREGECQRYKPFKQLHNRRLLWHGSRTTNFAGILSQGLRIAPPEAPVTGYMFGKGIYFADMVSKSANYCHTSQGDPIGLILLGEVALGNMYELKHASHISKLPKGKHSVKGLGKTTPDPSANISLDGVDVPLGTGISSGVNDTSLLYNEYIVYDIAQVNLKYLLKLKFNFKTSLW
UniProt P08238, residues 2-724: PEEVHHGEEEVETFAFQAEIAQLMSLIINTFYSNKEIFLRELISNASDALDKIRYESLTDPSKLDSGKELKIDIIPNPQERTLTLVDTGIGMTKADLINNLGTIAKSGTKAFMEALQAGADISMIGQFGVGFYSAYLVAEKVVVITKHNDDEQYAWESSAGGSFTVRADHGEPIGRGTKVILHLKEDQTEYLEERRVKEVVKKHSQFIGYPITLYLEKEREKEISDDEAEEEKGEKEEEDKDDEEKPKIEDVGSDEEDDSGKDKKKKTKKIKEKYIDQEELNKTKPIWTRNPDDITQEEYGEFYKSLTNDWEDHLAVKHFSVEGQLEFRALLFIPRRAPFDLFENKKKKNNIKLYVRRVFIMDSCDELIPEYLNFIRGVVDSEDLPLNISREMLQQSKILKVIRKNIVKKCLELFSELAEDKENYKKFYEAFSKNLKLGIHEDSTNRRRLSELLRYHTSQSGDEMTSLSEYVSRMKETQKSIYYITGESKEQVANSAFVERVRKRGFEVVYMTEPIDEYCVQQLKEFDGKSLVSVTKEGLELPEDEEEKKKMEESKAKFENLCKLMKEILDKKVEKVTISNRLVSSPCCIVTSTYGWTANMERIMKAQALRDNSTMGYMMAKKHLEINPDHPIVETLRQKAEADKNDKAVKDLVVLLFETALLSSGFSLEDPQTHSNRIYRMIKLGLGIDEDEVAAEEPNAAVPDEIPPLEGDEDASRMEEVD
UniProt P68363: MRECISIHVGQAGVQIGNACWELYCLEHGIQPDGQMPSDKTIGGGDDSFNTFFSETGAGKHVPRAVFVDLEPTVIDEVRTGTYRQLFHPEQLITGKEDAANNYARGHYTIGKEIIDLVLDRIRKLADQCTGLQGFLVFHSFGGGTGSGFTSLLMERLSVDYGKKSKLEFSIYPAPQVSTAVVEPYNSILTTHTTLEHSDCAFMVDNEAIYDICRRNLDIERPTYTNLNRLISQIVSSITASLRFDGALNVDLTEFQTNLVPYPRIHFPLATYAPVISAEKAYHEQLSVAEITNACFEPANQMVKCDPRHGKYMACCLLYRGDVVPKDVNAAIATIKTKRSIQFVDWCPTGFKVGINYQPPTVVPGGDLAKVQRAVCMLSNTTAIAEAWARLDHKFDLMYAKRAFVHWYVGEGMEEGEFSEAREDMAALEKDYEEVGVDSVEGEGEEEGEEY
UniProt Q7Z406, residues 2-1995: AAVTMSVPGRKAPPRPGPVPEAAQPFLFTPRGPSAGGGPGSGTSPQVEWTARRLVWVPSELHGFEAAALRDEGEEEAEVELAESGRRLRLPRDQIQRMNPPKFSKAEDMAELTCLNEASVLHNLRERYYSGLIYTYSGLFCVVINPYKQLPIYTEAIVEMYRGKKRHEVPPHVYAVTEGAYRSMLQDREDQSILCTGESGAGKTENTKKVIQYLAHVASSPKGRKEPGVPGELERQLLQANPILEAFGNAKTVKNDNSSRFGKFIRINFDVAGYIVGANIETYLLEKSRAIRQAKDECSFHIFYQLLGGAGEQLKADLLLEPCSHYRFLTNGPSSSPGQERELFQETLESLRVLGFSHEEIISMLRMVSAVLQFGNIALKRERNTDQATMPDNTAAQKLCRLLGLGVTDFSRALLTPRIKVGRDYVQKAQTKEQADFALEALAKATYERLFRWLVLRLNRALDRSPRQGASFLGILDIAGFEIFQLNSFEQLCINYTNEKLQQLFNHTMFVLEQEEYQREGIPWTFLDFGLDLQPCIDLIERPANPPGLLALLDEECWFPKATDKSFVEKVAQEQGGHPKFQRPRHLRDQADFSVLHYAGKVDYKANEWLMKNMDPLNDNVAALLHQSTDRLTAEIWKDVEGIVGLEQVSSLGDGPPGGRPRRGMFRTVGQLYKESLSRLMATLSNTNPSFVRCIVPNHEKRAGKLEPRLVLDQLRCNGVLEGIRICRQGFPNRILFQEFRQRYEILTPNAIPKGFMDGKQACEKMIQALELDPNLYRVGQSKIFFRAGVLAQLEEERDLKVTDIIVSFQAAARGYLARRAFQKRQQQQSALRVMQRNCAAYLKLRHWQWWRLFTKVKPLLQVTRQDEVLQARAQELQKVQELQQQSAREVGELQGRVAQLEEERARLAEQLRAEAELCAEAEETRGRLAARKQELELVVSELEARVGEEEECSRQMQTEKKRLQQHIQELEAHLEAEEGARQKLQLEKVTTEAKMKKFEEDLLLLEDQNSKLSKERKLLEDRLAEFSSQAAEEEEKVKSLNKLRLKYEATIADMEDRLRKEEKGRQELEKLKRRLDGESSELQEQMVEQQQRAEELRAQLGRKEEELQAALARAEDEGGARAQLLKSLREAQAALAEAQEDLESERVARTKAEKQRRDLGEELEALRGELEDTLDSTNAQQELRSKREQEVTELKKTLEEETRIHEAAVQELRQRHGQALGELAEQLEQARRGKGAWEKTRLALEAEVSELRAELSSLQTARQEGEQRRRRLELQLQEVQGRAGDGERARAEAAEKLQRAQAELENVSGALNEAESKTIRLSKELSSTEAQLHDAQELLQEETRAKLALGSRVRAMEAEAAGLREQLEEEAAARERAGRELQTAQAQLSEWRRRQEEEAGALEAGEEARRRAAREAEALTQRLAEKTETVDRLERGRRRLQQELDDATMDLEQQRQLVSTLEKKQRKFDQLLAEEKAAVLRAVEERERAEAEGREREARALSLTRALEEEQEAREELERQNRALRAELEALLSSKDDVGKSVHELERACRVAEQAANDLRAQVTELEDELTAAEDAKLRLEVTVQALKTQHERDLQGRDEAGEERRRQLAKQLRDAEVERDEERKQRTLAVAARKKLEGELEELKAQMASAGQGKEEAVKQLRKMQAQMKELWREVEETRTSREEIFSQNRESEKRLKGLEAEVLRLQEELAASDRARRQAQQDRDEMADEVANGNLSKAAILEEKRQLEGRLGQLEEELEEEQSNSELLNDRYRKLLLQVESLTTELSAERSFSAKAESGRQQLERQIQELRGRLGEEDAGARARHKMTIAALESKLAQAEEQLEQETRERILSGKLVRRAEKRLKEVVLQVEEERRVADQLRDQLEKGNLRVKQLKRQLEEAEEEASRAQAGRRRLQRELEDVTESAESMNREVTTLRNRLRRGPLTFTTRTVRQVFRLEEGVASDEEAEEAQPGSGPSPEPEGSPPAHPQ
UniProt P12830: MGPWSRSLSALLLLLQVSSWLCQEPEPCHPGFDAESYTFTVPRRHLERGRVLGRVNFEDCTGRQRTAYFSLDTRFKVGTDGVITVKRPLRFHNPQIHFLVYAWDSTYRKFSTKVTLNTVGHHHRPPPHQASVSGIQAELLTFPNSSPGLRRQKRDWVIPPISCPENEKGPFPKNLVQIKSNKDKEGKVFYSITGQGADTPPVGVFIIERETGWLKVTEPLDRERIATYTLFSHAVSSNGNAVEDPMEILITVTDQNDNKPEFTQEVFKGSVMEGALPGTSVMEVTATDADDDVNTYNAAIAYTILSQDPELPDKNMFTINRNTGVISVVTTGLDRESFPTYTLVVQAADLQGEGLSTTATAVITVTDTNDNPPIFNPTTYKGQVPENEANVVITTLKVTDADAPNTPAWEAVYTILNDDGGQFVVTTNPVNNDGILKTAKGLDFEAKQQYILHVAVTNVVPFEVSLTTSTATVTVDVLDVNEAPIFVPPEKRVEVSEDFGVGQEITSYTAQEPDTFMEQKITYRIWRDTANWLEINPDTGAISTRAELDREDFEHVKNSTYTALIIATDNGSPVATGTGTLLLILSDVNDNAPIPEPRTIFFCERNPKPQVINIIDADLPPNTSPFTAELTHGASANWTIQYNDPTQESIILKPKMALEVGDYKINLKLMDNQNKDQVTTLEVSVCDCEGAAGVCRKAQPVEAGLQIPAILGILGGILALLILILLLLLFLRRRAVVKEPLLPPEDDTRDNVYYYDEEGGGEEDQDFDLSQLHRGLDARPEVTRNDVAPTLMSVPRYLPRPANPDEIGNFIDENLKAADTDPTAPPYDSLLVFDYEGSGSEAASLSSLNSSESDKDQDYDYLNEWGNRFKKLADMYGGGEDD
UniProt O00159: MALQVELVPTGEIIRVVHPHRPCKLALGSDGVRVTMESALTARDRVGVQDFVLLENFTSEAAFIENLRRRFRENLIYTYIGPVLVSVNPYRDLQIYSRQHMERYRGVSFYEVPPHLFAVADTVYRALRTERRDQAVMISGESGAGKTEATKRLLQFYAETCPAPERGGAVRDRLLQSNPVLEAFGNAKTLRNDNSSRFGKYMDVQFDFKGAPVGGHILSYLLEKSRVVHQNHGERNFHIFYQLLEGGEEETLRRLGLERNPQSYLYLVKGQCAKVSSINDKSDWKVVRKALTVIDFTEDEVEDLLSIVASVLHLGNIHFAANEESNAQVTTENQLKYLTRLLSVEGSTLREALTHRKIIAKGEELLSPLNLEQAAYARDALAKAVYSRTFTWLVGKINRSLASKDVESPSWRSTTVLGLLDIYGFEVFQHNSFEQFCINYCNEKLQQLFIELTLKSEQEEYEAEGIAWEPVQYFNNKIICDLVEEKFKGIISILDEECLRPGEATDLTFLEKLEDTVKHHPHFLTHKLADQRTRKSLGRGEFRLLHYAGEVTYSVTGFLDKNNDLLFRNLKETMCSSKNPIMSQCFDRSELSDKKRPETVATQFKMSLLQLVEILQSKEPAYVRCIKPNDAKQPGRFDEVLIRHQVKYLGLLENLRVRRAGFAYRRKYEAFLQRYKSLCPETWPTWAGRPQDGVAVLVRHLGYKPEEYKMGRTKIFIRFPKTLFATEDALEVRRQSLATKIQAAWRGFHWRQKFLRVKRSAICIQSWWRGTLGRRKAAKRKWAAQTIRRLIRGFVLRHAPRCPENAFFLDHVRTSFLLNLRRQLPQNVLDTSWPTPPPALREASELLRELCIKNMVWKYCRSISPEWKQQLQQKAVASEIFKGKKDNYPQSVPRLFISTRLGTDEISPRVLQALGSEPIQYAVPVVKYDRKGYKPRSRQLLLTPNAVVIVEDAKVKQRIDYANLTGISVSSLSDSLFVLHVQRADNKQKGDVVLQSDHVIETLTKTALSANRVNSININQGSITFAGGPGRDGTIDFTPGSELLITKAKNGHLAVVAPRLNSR

Columns and labels:
[1] = molecular target: actin-related protein 2/3 complex sub 1B (human) (UniProt O15143); experiment: GST pull-down from NCI-H630 lysate (HepG2 lysate as control), LC-MS/MS; MASCOT score 193
nucleolin (human) = nucleolin (human) (UniProt P19338); experiment: GST pull-down from NCI-H630 lysate (HepG2 lysate as control), LC-MS/MS; MASCOT score 236
[2] = molecular target: poly[ADP-ribose]polymerase (human) (UniProt P09874); experiment: GST pull-down from NCI-H630 lysate (HepG2 lysate as control), LC-MS/MS; MASCOT score 106
HSP 90-α (human) = HSP 90-α (human) (UniProt P07900); experiment: GST pull-down from NCI-H630 lysate (HepG2 lysate as control), LC-MS/MS; MASCOT score 125 (one score for HSP 90-α and HSP 90-β)
HSP 90-β (human) = HSP 90-β (human) (UniProt P08238); experiment: as above
α-tubulin (human) = α-tubulin (human) (UniProt P68363); experiment: GST pull-down from NCI-H630 lysate (HepG2 lysate as control), LC-MS/MS; MASCOT score 258
myosin-14 (human) = myosin-14 (human) (UniProt Q7Z406); experiment: GST pull-down from NCI-H630 lysate (HepG2 lysate as control), LC-MS/MS; MASCOT score 2408
E-cadherin (human) = E-cadherin (human) (UniProt P12830); experiment: GST pull-down from NCI-H630 lysate (HepG2 lysate as control), LC-MS/MS; MASCOT score 173
[3] = molecular target: myosin Ic (Myosin Iβ) (human) (UniProt O00159); experiment: GST pull-down from NCI-H630 lysate (HepG2 lysate as control), LC-MS/MS; MASCOT score 908
[4] = molecular target: myosin Ib (Myosin Iα) (human) (UniProt O43795); experiment: GST pull-down from NCI-H630 lysate (HepG2 lysate as control), LC-MS/MS; MASCOT score 1252
[5] = molecular target: T1, voltage-dependent channel (human) (UniProt P45880); experiment: GST pull-down from NCI-H630 lysate (HepG2 lysate as control), LC-MS/MS; MASCOT score 111
T1 sequence (looked up): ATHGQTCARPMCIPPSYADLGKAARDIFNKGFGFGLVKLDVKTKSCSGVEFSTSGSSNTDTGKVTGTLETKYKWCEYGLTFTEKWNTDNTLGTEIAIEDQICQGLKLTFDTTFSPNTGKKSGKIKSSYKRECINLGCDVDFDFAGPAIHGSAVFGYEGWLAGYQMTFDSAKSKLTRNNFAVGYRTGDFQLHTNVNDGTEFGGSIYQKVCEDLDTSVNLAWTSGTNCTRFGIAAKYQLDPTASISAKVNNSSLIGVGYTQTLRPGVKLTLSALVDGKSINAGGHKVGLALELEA

[6] = molecular target: Spectrin alpha chain (human) (UniProt Q13813); experiment: GST pull-down from NCI-H630 lysate (HepG2 lysate as control), LC-MS/MS; MASCOT score 790
villin-1 (human) = molecular target: T2, villin-1 (human) (UniProt P09327); experiment: GST pull-down from NCI-H630 lysate (HepG2 lysate as control), LC-MS/MS; MASCOT score 1782
T2 sequence (looked up): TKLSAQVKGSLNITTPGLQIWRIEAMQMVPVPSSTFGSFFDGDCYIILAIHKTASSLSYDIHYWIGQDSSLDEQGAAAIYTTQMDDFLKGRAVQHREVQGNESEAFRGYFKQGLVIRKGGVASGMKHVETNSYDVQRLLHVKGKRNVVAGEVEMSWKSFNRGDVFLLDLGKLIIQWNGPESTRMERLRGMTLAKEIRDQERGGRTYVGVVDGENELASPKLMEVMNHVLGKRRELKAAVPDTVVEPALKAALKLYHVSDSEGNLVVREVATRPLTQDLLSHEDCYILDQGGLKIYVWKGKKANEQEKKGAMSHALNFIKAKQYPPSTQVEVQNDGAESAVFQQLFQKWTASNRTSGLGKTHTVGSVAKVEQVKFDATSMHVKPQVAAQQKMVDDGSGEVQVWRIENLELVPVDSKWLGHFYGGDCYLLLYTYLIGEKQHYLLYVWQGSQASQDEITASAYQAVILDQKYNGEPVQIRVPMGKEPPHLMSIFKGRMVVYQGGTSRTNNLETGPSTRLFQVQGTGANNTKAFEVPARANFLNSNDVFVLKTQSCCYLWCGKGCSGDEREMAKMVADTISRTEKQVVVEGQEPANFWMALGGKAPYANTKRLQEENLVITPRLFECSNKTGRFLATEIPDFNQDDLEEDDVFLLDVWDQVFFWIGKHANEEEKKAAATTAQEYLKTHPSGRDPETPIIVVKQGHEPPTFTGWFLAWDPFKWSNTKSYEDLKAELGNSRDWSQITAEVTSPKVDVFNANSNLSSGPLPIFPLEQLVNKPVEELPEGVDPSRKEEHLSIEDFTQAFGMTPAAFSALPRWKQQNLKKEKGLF

Measured: binding

CGIYRLRSC (peptide, not shown: a dimerising Fc or GST) […-GST]
binds: all assays above
